For 2 molecules, binding results are on record in article PMC5387711 (Cell Discovery, 2017).

By UniProt entry, the sequences of proteins in these tests, tags left out.
UniProt P35222: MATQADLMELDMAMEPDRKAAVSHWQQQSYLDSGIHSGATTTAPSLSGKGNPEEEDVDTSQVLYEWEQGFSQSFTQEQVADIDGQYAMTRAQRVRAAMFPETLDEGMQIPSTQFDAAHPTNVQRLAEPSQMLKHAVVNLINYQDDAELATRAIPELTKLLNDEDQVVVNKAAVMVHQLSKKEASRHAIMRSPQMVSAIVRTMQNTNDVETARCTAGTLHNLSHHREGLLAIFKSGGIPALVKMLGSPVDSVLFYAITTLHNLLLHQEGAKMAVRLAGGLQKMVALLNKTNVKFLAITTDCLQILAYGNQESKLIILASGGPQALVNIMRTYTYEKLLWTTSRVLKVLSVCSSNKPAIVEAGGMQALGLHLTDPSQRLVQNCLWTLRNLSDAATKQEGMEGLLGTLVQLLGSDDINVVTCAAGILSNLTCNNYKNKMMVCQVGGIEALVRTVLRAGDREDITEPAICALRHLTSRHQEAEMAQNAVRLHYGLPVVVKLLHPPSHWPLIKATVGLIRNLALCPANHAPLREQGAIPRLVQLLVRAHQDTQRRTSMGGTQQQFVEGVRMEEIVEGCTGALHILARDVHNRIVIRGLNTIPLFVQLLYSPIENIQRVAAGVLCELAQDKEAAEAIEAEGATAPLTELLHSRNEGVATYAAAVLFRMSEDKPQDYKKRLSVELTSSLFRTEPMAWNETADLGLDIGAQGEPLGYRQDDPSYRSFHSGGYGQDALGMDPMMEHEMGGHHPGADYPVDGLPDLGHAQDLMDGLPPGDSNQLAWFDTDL

Results are given in words; binding and its absence hold for the method and conditions named. In cells and extracts the contact can be indirect. Some binding calls cover weakened binding; strength is not graded here. For some assays here: Where a sequence is shown, tags or fusion partners need not be part of it.

Assay [1] deals with T1, endogenous CARF (human (endogenous in HEK293)) (UniProt Q9NXV6).
T1 sequence: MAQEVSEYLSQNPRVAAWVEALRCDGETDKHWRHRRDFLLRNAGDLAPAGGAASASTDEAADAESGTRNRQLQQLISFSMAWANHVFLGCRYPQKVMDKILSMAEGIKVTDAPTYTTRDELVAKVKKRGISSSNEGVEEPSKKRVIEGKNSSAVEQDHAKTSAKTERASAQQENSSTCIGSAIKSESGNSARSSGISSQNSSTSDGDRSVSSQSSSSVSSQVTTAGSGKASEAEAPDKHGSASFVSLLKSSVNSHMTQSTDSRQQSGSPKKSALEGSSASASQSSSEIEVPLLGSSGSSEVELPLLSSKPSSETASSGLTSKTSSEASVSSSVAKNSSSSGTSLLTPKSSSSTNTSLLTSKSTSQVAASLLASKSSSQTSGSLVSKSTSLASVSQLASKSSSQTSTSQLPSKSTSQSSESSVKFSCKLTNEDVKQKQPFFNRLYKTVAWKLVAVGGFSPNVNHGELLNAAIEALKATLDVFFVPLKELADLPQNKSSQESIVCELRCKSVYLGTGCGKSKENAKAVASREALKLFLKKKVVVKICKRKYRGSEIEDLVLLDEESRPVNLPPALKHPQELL
In words: co-IP; endogenous Co-IP, cells with or without Wnt stimulation (Supplementary Figure S6D); cells and IP antibody not shown.

The next assay deals with T2, GST-hCARF (human) (UniProt Q9NXV6).
T2 sequence: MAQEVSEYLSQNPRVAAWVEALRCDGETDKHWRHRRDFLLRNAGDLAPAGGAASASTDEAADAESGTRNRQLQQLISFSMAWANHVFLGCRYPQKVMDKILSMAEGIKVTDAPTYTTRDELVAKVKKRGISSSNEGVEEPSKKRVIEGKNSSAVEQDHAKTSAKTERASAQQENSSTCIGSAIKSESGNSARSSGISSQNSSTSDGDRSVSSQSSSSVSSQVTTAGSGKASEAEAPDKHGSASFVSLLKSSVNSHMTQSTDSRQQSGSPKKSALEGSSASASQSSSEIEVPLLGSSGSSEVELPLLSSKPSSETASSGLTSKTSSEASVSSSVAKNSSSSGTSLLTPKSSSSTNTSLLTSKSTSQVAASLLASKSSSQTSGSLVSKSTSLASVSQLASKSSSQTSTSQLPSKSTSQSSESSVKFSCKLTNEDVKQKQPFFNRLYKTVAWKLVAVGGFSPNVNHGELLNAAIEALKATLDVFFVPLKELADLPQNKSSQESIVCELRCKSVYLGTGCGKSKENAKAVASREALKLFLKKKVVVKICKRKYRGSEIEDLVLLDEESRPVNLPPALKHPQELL
The assay is described as follows: pull-down; GST-hCARF purified on glutathione beads mixed with E. coli lysate of His6-mDvl1 plus DMSO for 2 h; beads washed 3 times; western blot; only the target purified.

On to “endogenous β-catenin (from UniProt P35222 1-781)”, for which the binding result in assay [1] is “binds”.

B1: His6-tagged mDvl1 (protein, UniProt P51141 1-695)
chain: MAETKIIYHMDEEETPYLVKLPVAPERVTLADFKNVLSNRPVHAYKFFFKSMDQDFGVVKEEIFDDNAKLPCFNGRVVSWLVLAEGAHSDAGSQGTDSHTDLPPPLERTGGIGDSRPPSFHPNVASSRDGMDNETGTESMVSHRRERARRRNRDEAARTNGHPRGDRRRDLGLPPDSASTVLSSELESSSFIDSDEEDNTSRLSSSTEQSTSSRLVRKHKCRRRKQRLRQTDRASSFSSITDSTMSLNIITVTLNMERHHFLGISIVGQSNDRGDGGIYIGSIMKGGAVAADGRIEPGDMLLQVNDVNFENMSNDDAVRVLREIVSQTGPISLTVAKCWDPTPRSYFTIPRADPVRPIDPAAWLSHTAALTGALPRYGTSPCSSAITRTSSSSLTSSVPGAPQLEEAPLTVKSDMSAIVRVMQLPDSGLEIRDRMWLKITIANAVIGADVVDWLYTHVEGFKERREARKYASSMLKHGFLRHTVNKITFSEQCYYVFGDLCSNLASLNLNSGSSGASDQDTLAPLPHPSVPWPLGQGYPYQYPGPPPCFPPAYQDPGFSCGSGSAGSQQSEGSKSSGSTRSSHRTPGREERRATGAGGSGSESDHTVPSGSGSTGWWERPVSQLSRGSSPRSQASAVAPGLPPLHPLTKAYAVVGGPPGGPPVRELAAVPPELTGSRQSFQKAMGNPCEFFVDIM
As for B1, the binding entry with GST-hCARF (human) is listed as “binds”.
